Reference: PubChem BioAssay AID2718 (Broad Institute, 2010)
Screen size: about 320,000 compounds; about 480 (0.15%) were called active. The shares of active, inactive and inconclusive entries below differ from those in the screen. Rule as the data show it: active = inhibition above about 26% (passing the limit was not always enough); inconclusive = no clear call, values can overlap the other calls.

Sequences of proteins named here, by UniProt entry; tags and fusion partners are left off.
UniProt O15379, whole entry, looked up: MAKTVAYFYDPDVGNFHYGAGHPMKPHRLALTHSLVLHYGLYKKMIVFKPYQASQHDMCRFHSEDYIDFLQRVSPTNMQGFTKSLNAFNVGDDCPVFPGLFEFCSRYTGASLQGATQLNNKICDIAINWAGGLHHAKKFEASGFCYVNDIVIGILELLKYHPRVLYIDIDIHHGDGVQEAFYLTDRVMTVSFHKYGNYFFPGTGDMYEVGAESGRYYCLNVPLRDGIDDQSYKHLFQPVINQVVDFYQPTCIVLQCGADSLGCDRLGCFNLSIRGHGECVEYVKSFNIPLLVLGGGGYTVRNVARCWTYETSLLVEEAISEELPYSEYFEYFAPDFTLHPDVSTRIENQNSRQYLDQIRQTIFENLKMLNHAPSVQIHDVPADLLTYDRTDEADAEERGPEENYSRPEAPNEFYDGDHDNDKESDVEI

Each molecule was assayed against Histone deacetylase 3 (Homo sapiens) (UniProt O15379) (assay: HDAC3 deacetylase inhibitors, primary screen, biochemical, fluorescence, cell-free homogeneous (AID 2718)). Settings: recombinant HDAC3, fluorogenic peptide/trypsin coupled, at 8.3 µM, active compounds read high.

Row | Compound | inhibition
1 | CCN(CC)C(=O)C1CCCN(C(=O)Nc2ccc(NC(=O)N3CCCC(C(=O)N(CC)CC)C3)cc2)C1 (configuration not stated) | inconclusive: 21.1%
2 | CCOCC(=O)Nc1ccc(OCc2ccccc2)cc1 | inconclusive: 15.5%
3 | COc1ccc(C(=O)CSc2nnc(CNC(=O)c3ccc(S(=O)(=O)N(C)C)cc3)o2)cc1 | inconclusive: 19.6%
4 | COc1ccc(NC(=O)CN(c2ccc(C)cc2)S(C)(=O)=O)c(OC)c1 | inconclusive: 43.8%
5 | Cc1ccc[n+](CC(=O)c2ccc(Br)cc2)c1 | inconclusive: 14.8%
6 | COc1ccc(C(=O)NC2=Nc3ccccc3N=C(C)C2c2ccccc2)cc1 (configuration not stated) | active: 76.6%
7 | COc1ccccc1C1(CC(=O)Nc2nccs2)CCOC(C(C)C)C1 (configuration not stated) | inactive: 7.18%
8 | CCOC(=O)c1c(C)[nH]c(C)c1C(=O)CSc1nc2ccccc2c(=O)n1-c1ccc(C)cc1 | active: 31.5%
9 | CC(C)Oc1ccc(C(=O)Nc2ncn[nH]2)cc1 | inconclusive: 25.7%
10 | CC(C)c1ccc(O)c(NC(=O)c2cncc(Br)c2)c1 | inactive: 4.65%
11 | CC(C)C(NC(=O)c1c(F)cccc1F)C(=O)N1CCN(c2ccccc2F)CC1 (configuration not stated) | inconclusive: 19.2%
12 | COc1ccc(S(=O)(=O)N(CCc2ccccc2)CC(=O)O)cc1C | inconclusive: 15.9%
13 | CC1(c2ccccc2)CC(C)(C)N2C(=O)Cc3cccc1c32 (configuration not stated) | inactive: 3.91%
14 | CC1CN(S(=O)(=O)c2cccc(C(=O)OC/C(O)=C(\C#N)c3nc4ccccc4[nH]3)c2)CC(C)O1 (configuration not stated) | inconclusive: 20.3%
15 | CC(=O)C1=C(C)NC(SCC(=O)c2cc(Cl)ccc2Cl)=C(C#N)C1c1ccco1 (configuration not stated) | inactive: 1.8%
16 | COc1ccc(C)cc1S(=O)(=O)N1CCOCC1 | inconclusive: 16.6%
17 | C/C(=N\Nc1ccc(F)cc1F)c1ccc(N2CCOCC2)cc1 | inconclusive: 22.5%
18 | O=C(CSCc1ccco1)c1ccc(Cl)s1 | active: 90.2%
19 | COc1ccc(N(CC(=O)Nc2ccccc2C)S(=O)(=O)c2ccccc2[N+](=O)[O-])c(OC)c1 | inactive: 0.911%

3 entries drawn at random from the list so far, as already listed:
Row | Compound | inhibition
10 | CC(C)c1ccc(O)c(NC(=O)c2cncc(Br)c2)c1 | inactive: 4.65%
19 | COc1ccc(N(CC(=O)Nc2ccccc2C)S(=O)(=O)c2ccccc2[N+](=O)[O-])c(OC)c1 | inactive: 0.911%
17 | C/C(=N\Nc1ccc(F)cc1F)c1ccc(N2CCOCC2)cc1 | inconclusive: 22.5%

More compounds follow.

Row | Compound | inhibition
20 | CCCc1[nH]c2ccc(C(=O)OC)cc2c1CCC | inconclusive: 17.9%
21 | CCc1ccc(CNC(=O)C2CCCN(S(=O)(=O)N(CC)c3ccccc3)C2)cc1 (configuration not stated) | inconclusive: 13.9%
22 | Cc1ccc(C23OCCN2CCn2nc4ccccc4c23)cc1 (configuration not stated) | inconclusive: 12.9%
23 | CC(=O)Nc1cccc(-c2nn[nH]n2)c1 | inactive: -1.12%
24 | CCN1C(=O)[C@H]2[C@@H](c3ccc(-c4ccc(F)cc4)c(OC)c3)N[C@@](CC(C)C)(C(=O)OC)[C@H]2C1=O | inconclusive: 15.6%
25 | Cn1sc(NC(=O)c2cccc(Cl)c2)nc1=O | inconclusive: 22.8%
26 | COC(=O)c1ccc(CSc2nc3scc(-c4cccs4)c3c(=O)[nH]2)o1 | active: 42.2%
27 | O=C(O)CN1C(=O)CC(Cc2ccc(Cl)cc2)C1=O (configuration not stated) | inconclusive: 17.2%
28 | NCC1CCC(C(=O)Oc2ccc(CCC(=O)O)cc2)CC1 (configuration not stated) | active: 81.3%
29 | COc1ccc(CN(C)CC(=O)Nc2sc3c(c2C#N)CCC3)c(OC)c1 | inconclusive: 14.1%
30 | COc1cccc(NC(=O)c2oc3ccccc3c2NC(=O)C(C)(C)C)c1 | inconclusive: 22.4%
31 | CC(C)=CCC12Oc3cc(O)ccc3C1(O)Oc1cc(O)c([C@H]3C=C(C)CC(c4ccc(O)cc4O)[C@H]3C(=O)c3ccc(O)cc3O)c(O)c1C2=O (some centres not stated) | inconclusive: 24.3%
32 | CCOC(=O)c1ccc(NC(=O)c2cc(OC)c(OC)c(OC)c2Br)cc1 | inactive: -4.29%
33 | Cc1ccc(-n2c(C)cc(C(=O)CN3CCOCC3)c2C)cc1C | inconclusive: 42.8%
34 | CCN(CC)S(=O)(=O)c1ccc(OC(C)C)nc1 | inconclusive: 15.4%
35 | CC(C)(C)CC(C)(C)NC(=O)CSCC(=O)Nc1ccc2ccccc2c1 | inconclusive: 24.1%
36 | CC(C)OCc1c(C(=O)Nc2nccs2)oc2ccccc12 | inactive: -1.39%
37 | O=C(NC1(Cc2ccccc2)CCN(Cc2ccc(-c3ccccc3)cc2)C1=O)c1ccccc1 (configuration not stated) | inactive: -2.15%
38 | O=C(Nc1ccc2c(c1)OCCO2)C1CCCN1C(=O)Nc1ccccc1 (configuration not stated) | inconclusive: 21.1%

Row | Compound | inhibition
39 | Cc1cc(C)cc(OC(C)C(=O)Nc2ccccc2C(=O)NCc2cccnc2)c1 (configuration not stated) | inactive: 1.96%
40 | Cc1cccc(OCC(=O)Nc2ccc3oc(=O)ccc3c2)c1 | inconclusive: 9.62%
41 | COc1cccc(N2CCN(C(=O)c3ccc(-c4ccccc4)cc3)CC2)c1 | inconclusive: 5.38%
42 | Cc1cc(C(=O)Nc2ccc(F)cc2C)cs1 | inconclusive: 10.5%
43 | CCc1nc(NCCO)c(C#N)c2c1CSC(C)(C)C2 | inactive: -1.91%
44 | Cc1ccc(/C=N/Nc2ncnc3nc[nH]c23)cc1 | inconclusive: 24.5%
45 | COCCn1c(C)cc(/C=C2/NC(=O)N(c3ccc(Cl)cc3)C2=O)c1C | inactive: -2.07%
46 | O=C(Nc1ccc2c(c1)OCO2)c1noc2c1CCCCC2 | inconclusive: 15.8%
47 | C=CCN1C(=O)c2ccc(C(=O)NCCOc3ccccc3F)cc2C1=O | inconclusive: 19.4%
48 | S=c1[nH]nc(CCc2ccccc2)n1Cc1ccccc1 | inconclusive: 37%
49 | O=C(N/N=C/c1ccc(O)cc1)c1cc[n+](Cc2ccccc2)cc1 | inactive: 4.52%
50 | CC(C)(C)c1[nH]nc2c1C(c1ccc(OC(=O)c3ccco3)cc1)C(C#N)=C(N)O2 (configuration not stated) | active: 54.2%
51 | CC(=O)C[C@@H](O)CC(=O)[C@@H]1OC(=O)[C@H](C)C/C=C\Cc2ccccc21 | inactive: -2.98%
52 | Cc1nc(SCC(=O)NCc2ccco2)c2c3c(sc2n1)CCCC3 | inactive: -0.376%
53 | O=S(=O)(c1cccc(S(=O)(=O)N2CCOCC2)c1)N1CCCCC1 | inconclusive: 15.8%
54 | O=C(O)c1c(Cl)nc2ccccn12 | inactive: -0.229%
55 | Cc1nc2ncnn2c(N2CCN(c3cccc(C(F)(F)F)c3)CC2)c1C | inconclusive: 24.7%
56 | Cc1ccc(C(=O)NC(=S)NCC(=O)c2ccccc2)cc1 | inconclusive: 19.1%
57 | CN(C)CCn1c(NC(=O)c2ccc(Cl)cc2)nc2ccccc21 | inconclusive: 22.3%
